Entries after “also recorded” stand apart in the source; their conditions may differ. At least one compound was matched to its structure with a doubt left.
Experiments:
glioma PTOs = assay: Drug screening of glioma patient tumor organoids (PTOs) with TMZ; assay type: cell-based, human
A172 GBM organoids = assay: GBM cell line organoid response, quantitative ATP activity; assay type: cell-based; details: TMZ alone, 8 days of treatment
U87 MG GBM organoids = assay: as above; assay type: cell-based; details: TMZ alone; 8 days of treatment

Cn1nnc2c(C(N)=O)ncn2c1=O [TMZ, temozolomide]
PTO response to TMZ (glioma PTOs; PTOs made directly from fresh tumor biospecimens (P0, no passaging)): TMZ sensitivity and tumor cell death
PTO response to TMZ (glioma PTOs; cells underwent one or two passages in 2D culture before PTO form (P1, P2)): gain resistance to TMZ; also recorded: gained TMZ resistance
organoid response to TMZ (ATP activity) (A172 GBM organoids; Example 3): largely resistant to TMZ, except at the highest dose
organoid response to TMZ (ATP activity) (A172 GBM organoids; Example 6): dose dependent response
organoid response to TMZ (ATP activity) (U87 MG GBM organoids): responded readily

Source: patent US20260256702A1, “SUSTAINED ADJUNCT THERAPY TO IMPROVE CHEMOTHERAPY EFFICACY IN GLIOBLASTOMA IN A CEREBROVASCULA TUMOR-ON-A-CHIP MODEL” (Ohio State Innovation Foundation, priority 2022, published 2026)
